Assay results published in paper PMC2935449.
These are yes or no findings as the source states them, for the method shown. In cells and extracts the contact can be indirect. Some results given as binding are weak or reduced against the parent protein; the word gives no strength. Where a sequence is shown, tags or fusion partners need not be part of it. Each block holds one binder with its values, some of them ahead of it.

Key:
Experiment in all cases: co-IP; native NP-40 lysates of S. pombe strains with tagged proteins; IP with anti-GFP, anti-V5 or anti-FLAG and Protein G Sepharose, or IgG Sepharose; immunoblot; wild-type background, for Ubp9 and Bun62 also bun107-null
Ubp9-GFP (S. pombe) = target: T1, Ubp9-GFP (S. pombe) (UniProt Q9P7V9)
T1 sequence: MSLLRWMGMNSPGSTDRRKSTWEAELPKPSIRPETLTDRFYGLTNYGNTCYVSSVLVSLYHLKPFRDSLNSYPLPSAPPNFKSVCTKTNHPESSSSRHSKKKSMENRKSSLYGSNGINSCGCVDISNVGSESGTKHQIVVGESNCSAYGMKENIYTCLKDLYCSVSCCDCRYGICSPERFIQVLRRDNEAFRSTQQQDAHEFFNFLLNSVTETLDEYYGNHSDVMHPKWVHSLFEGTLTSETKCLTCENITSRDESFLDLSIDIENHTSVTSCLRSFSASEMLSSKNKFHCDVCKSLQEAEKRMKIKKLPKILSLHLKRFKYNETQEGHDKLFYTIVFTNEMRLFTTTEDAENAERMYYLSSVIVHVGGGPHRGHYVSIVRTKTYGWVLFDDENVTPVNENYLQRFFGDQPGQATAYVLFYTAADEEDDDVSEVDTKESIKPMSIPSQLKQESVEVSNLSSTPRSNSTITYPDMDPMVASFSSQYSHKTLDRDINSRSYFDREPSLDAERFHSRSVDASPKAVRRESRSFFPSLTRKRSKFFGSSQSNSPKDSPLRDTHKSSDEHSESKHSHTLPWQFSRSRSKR

Ubp4-GFP (S. pombe) = target: T2, Ubp4-GFP (S. pombe) (UniProt O60139)
T2 sequence: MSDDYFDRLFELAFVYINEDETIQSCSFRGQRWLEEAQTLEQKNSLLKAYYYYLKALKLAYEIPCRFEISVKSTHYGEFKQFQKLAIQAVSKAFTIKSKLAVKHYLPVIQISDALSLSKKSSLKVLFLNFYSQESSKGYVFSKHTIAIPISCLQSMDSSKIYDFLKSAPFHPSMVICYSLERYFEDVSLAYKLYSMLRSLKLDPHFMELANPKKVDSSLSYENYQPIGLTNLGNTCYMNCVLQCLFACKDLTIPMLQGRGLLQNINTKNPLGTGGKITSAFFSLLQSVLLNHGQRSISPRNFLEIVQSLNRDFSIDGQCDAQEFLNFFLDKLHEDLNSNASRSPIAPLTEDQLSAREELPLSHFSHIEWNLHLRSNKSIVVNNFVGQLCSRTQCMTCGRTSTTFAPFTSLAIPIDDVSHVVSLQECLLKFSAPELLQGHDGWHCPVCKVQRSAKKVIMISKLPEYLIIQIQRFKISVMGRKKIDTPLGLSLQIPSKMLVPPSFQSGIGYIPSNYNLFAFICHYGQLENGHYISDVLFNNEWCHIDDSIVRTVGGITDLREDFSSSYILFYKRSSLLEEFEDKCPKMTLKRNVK

[1] = target: T3, Bun62, tagged form used in the co-IPs of Figure S13D (S. pombe) (UniProt Q10437)
T3 sequence: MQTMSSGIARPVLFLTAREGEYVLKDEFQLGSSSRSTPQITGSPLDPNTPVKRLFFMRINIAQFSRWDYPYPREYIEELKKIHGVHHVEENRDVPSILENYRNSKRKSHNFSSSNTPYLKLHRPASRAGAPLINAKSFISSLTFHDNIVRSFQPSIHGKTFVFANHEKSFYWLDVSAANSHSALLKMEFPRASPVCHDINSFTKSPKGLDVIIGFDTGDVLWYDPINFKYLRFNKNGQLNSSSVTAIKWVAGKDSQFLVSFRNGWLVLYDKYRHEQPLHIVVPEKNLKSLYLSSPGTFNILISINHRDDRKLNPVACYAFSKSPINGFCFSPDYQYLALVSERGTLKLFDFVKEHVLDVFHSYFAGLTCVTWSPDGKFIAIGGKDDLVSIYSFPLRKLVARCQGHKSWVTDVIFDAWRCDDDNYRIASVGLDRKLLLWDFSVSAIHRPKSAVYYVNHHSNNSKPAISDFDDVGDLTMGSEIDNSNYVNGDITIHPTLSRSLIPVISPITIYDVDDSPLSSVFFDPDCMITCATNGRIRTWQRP

TAP-Ubp11 (S. pombe) = target: T4, TAP-Ubp11 (S. pombe) (UniProt Q9UUD6)
T4 sequence: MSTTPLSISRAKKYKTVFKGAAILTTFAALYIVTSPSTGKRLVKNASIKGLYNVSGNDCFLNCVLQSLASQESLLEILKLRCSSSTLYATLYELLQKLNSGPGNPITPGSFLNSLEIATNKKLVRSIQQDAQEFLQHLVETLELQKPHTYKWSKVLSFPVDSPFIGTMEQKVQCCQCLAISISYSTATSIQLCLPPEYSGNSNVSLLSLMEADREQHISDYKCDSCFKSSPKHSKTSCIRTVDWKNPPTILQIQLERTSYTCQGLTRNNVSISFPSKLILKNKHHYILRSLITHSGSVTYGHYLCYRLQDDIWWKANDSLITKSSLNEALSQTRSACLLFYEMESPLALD

B1: Bun62, tagged form used in the co-IPs of Figure S13D (protein, UniProt Q10437 1-543)
chain: T3 sequence
binding (Ubp9-GFP (S. pombe)): binds

B2: Sfp47-FLAG (protein, UniProt O14259 1-415)
chain: MNSFSSNEYSTEISTEALNNWQQLVEQRISLELEYAAKLAKLTKSIKAIKQCAPLNDLTKQVCVELMQCNKKHLEASRYFQTHVKEFMKEYVDRENKFSNETISKSSAAALMTSMENFILFTNPVYHNKLQVPSKSDMEIANSLKITQPAEKNSGTANPISAYSLEHAELDERNNQLSEALSMLRLSPFVNNYYPSYQNRKDGKSLMENRGVVLSVDTVTSPISQSPKKLTPTTSPINSTSLSFVDAKKPGSKWPSQYDFPKKTKSTEIPFKTLPSLNINNERELTKHKLPIVKPKLAVFPSNQATASTLQLAPPPVQAIPTLRNPVNLDDKKESLLKYYATHPTITPDGFPIFAYVRALYAYKATLPSEIDLNVDDTLVVLNRQKDGWWKGLVVSPTVGRIGLFPSNYIEELEY
binding (Ubp4-GFP (S. pombe)): binds

Further lines, results first:

binding [1]: binds
B3: Ubp9-GFP (enzyme, UniProt Q9P7V9 1-585)
chain: T1 sequence

binding (TAP-Ubp11 (S. pombe)): binds
B4: Tom70-GFP (protein, UniProt O14217 1-625)
chain: MSGISNAENGKAIVSSGVLNSVSAFVRRHRTFVYTIGAVAVFATVGGVYHVQQKKASHKRSKKLKAHQDKAESKVNEGKNEAAKVVKEEDLKSSETGKDVETAAAAAAAAKKKKKNKKKVKAKKVGDSSVDKIATEESVKSMTKEERAKLAAELKTLGNKAYGQKEYANAIDYYTQAITCSHDPIFFSNRAACYAAIGDFEQVIKDTSEALSLDSSYVKALNRRSAAYEQLGKLDEALMDSTVSCIFDGFANESMTATVERLLKKVAEKKSSALLKERPPKLPAASFIQTYLDSFHAQPKPLFDNKFDGDAALAEAYEYLEKGEYQLSYDKAKESCLGSFSSPSVNARTHNLVGTFKFVSGDSKGSMENFNAAIKLDRKFIQPYIRLSAAYLDENDNEKMWKVLNDAESVDKTDSDLYYHRAQVRFVSGEFAEAISDYQKSIALDDSFIYSHIQLGVAQYKTHAIAESMKTFEDCKKRFPNSSEVYNYFGEILLDQQKFDDAVKNFDHAIELEKREHLTIMSAMPLINKALAVFQWKKDISQAENLCRQALSADPECDIAIASMAQFLLQQGKAREALEYFEKSAQLARTESEMVNAFSYAEATRTQIALTEKYPQLVGRLSNPM
